US8536120B2 (The Administrators of The Tulane Educational Fund, priority 2006, dated 2013)
At least one compound was matched to its structure with a doubt left.

By UniProt entry, the sequences of proteins in these tests, tags left out.
UniProt O08725, whole entry: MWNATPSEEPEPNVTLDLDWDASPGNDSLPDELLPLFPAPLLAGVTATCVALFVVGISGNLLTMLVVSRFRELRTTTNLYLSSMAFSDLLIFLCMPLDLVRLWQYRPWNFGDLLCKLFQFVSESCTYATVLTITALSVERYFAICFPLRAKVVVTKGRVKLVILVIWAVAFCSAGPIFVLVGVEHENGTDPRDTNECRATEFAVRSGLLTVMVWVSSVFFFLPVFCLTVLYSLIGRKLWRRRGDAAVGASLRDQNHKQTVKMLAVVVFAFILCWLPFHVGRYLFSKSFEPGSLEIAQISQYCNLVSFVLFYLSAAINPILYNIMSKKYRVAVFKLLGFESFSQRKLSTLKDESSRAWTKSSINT

Molecular target: Ghrelin/GHRP/GHS Receptor (Rattus norvegicus, UniProt O08725)
Assay: In vitro cell culture method: GH release from cell culture of pituitary cells, peptide alone or plus stimulator
Format: cell-based
Set-up: from cell culture of pituitary cells; endogenous in cells; host or cells: dispersed primary rat anterior pituitary cells, 4 days in culture
Settings: Table 11; for GH release, first line of entry (mark P + S): stimulator 1 ng/ml
Description: The peptides were synthesized by the solid phase method and purified by HPLC. GH was determined by Radioimmunoassay (RIA).
In vitro GH Release-Female rats of the CD-1 strain were housed in a constant temperature room at 24° C. with 14 h light and 10 h darkness. The rats were fed Purina Rat chow and water at libitum. All studies were started between 0800-1000 hours. Pituitaries of mature female Sprague Dawley rats were rapidly removed after decapitation, neurointermediate lobe discarded and then placed in a pH 7.4 buffer. The pituitaries were cut into ˜3-mm pieces and then transferred to a flask containing HEPS buffer with trypsin and incubated at 37° C. Cells were triturated several times during this period. After dispersion, the cells were collected by centrifugation, wash with DMEM and placed into culture well. Cell cultures were maintained for 4 days at 37° with 8% CO2 added to the incubator atmosphere. After 4 days in culture, cells were washed with lactated Ringer's solution adjusted to pH 7.2-7.4 and then vehicle, peptide alone or peptide plus stimulator was added to media. Incubation time was 60-120 minutes after which media was removed from each well for GH determination. The GH RIA reagents were distributed by the NIH. Control data was collected from cell cultures treated with only the corresponding vehicle in the absence of peptide or stimulator. Control stimulated data was collected from cell cultures treated with stimulator alone in the absence of any peptide.

CCOC(=O)c1cc2ccccc2cc1C(=O)Nc1ccccc1OC [3-(2-methoxyphenylcarbamoyl)-2-naphthoate]
GH release, second line of entry (no mark) (10 μg/ml): 670 ± 32 ng/mL | GH release, first line of entry (mark P + S) (10 μg/ml): 698 ± 18 ng/mL | GH release, second line of entry (no mark) (30 μg/ml): 458 ± 15 ng/mL | GH release, first line of entry (mark P + S) (30 μg/ml): 552 ± 20 ng/mL
